No constants are given. Whether binding was seen depends on the method and setting. Binding seen in cells or lysates may run through a third protein. A yes stands for co-enrichment or nearness to the bait. Other partners may have been found.
Target: FLAG-BirA*-MOB1 (Toxoplasma gondii MOB1 fused to the C-terminal end of FLAG-BirA*) (Toxoplasma gondii)
Assay: proximity labelling; BioID: FLAG-BirA*-MOB1 (control: FLAG-BirA*) tachyzoites in HFF cells, 150 µM biotin for 56 h; lysate in sucrose-based lysis buffer on agarose-streptavidin beads overnight at 18 °C; nanoLC-MS/MS; three biological replicates

Binder	binding
Endonuclease/exonuclease/phosphatase family protein TGME49_243590 (protein, UniProt S8FA35 1-1111) MQAHTATFDEFTCSHRHYVNRIRRDILGRGVLKVTLHEALHVDEILSLPRPMFLTSFSSPFFSGVLLCSLHLPLLGASLPLCPVCAPPRSSSQLLSFCSSRLLRASSSPGCVGGRPGRRSAPVAKTKPVFEFPPLTSASVPSLPFSSPSASSGKPIPRTVSSRSSPFCPAPLCRFFSSLPFAHPSSACVAPSVRSGSSLRPATFLLWSFCFSSRLAVRSRKCTVHCQLPLSLVPTVSLPGLSLVQSSRRPLCPFSVSPSAASFCLREYSSLSQRLFTSDSPKTFFHQLPRSSSNGSLIYSSLPSSASALLSSSPSPSSSPSSASSPSSSAVSGVRGGTQATLASCPSSFRKSENMERRSKLGDLLVTRAADGKLLLTFFWLGQRVNLERSEEEPLDRLLQRLRLSCRKVTQKRLAEETRKGKAARKQRKKAEESSPGAHAATEPVHNEEKKAAAIEDLPFIFLRRKDGTVAPGDEACGVSFQRASLICFSPFAPQGDAERTGKSELSPRDESADSENVLEVVWDPPVARCIYVPQAVYTGCPVLACVVTEHANEDDLVIEWRYEDSGVDGPVIHRGRHYTPKPADEGRVLILKAYHPLYSVFSVTNSLPPVLPCPSIDWHFERNNAFSPSSPSSLPSLSPAASSSVPSHPSVRAKSSKSLRVCSFNILAGAYARTPHAVQAMYPYCSGHHLDLHHRKALLGKELHALDGDIVALQECSSSLFFSFLAPLFKEEYHAFLQCKFKARVQEGCALLIRKKYFSVLREGSVIFQKELLTNPQYDELLAELRRKWPHFETDVLPHLTTVMQFAILRRRDTREAHDEKDLPKTLVVANTHLFFHPYARHIRVLQIYVMTNFLQTLREEFAESEDSSTAPAEPASFSASRRLPPVIMCGDFNCQPGSGGLKLLKKKAVHAYLDDWHDGLAFRWEKDEDAAAEDEEEKNGDEEAKSGIEMKKEDAPGTIVSPSLPETSPASSDSAVAFAAASESRNAEHEGKGPHEMESGIDHREAGGEQGTGEEPGVALRLPGDLDLVDCYEDSPLAFSNFVSGFQATLDYIYASSDFKVVARLPGVSEEAVRAHGGLPCHGYPSDHLAIAVDLQLKSTESPENSYTK	binds
DDHD domain-containing protein TGME49_313600 (protein, UniProt S8G2U2 1-1483) MAFSWFFPQQASEGAPLTAVSSTATDEKPAGVLNKAVSVEASTKDFADARTAVFARGPRLLSRHHSASSRRRSKHVGPVQIEFDDDDEPHASFSYTRPPSQPIEHRSSSDSASGGSHAGQRGVDPRCARERERKNRERAASLERSSARSMCSGGEHVKTARFHVSARRERAAQRFNTVDDPENVDGDSHPQSPQRGVALKQETSVDQPHVGGKEPEDDADLVVGAKPFEFAFAGRRRRTLSHFPSRLGTLPSLRSFPLGSQSGEGRTLTASREGHRGFREGNPRVHPPESRRMDEGDSSDYSGVSPAELTPREGETSRSVQVSGDVFAETSARFHLPSEIKPSKRSISSLRQPLGNGLRGETESTASPDSSAPQNTHVTASQSRPPQILQGPLPASTGPPEKSSTASVGRHPLRTASARVSFAATAAERAAETRGHKAKDEEQRLSPSAGPSPRKSLAEGEARKMQTRERHRPRSPSSSASTRVSELDTARSSSSSTSLPPVAQEEGRHRSDDAKGTEETAEVETGPQKVRASSVSGRPPCEHILLVVHGIGCEAEGGAIHKQQFVKSLALVNEYWFWKKPVEVHVHAINWKQTVIHAQEHMFEHITLKDVYETRRMLTLTAADLLFFLTPRYGDFIMTQVAEQLNEAVAKLRAHPSERYKNSKISVLGYSLGSVMAYELLAGRPFRPSLFNPTTNPSPRLNFHVDSLFLLGSALPAFLLLHAPEILKQGMWLPKDLRLYNIFHPCDPVAFRLEKLVYPQIRQLPPPVLLAFWRTNGVQKWYEWDMNVQHAKNVLMQNITDFASTISNSLFFWWNPEKGNPNPEGISVLDSNASAASAALEEAKKTRTGLLSSSFSSSSLVGPLVQKSKAGQRDADGLRDGDTRNGGKRGGSAETPGRGAGGDGASRTHRRVLDSARSSSAKLGDENTKQLPLRPADMCAFRMRLKQTLPHVLRRHRAAESSEDEDVSLPAGSRLLPRLPPLPSLGSSLSSSLASADLSSSASSQLDVSPRSSSAASSTASAEETPHSPSSPNASEREQNDSRVESRSKDADTCMHPSPRAAVQLYAGAARETASGDLEKAKSGDASSPGERENQRAALTKRGSELSATGGALPERDAETGKDRSGNRRVSKKEGDADSKPKREEDKGGRTRPRGEEEEGDGDQNIWHLLYRSNSKEKPEDGAVSDVTTSSAGSGAFALEQLEQLEQETSRAMAQLETINEQTGPDILPVRVDFQLQEDTAEHFLSSLAMLQSHFNYWKLKDVAFFILKCLTGTNPTLSYTGHLKQLECAARKAAAKAERESNEVERRRQLKLAAALHRRLDSFNGTSEGTETSRKSRQPHAKHGSSPQGGTLGKRHSLAGSENYGREKSKHRQSVPGGGAIEVSSDGESHCSADRKGSSSAESERDISTESGSSKAQSTYRSRHSEAKANGGNYSTDSSSAESMPRAGQESEKSARKRHLEKRQQRANERLSTHRTVTKSFK	binds
Cell-cycle-associated protein kinase DYRK, putative (protein, UniProt S8F8Y6 1-1180) MASLPASDGREEEALAALRRVLHAWTGPEGEAGREARLLKNAAFLESLQQLVSQLACLHGAADRVGADGAFFADREERRETEGGSGVSFSDARVALNDLLSSNLPLSVVESHALVQDLLRRQQAGTGAVSAPKREAACFPLGRSEGEQGGVFGLGSASLEAPAAPPLLLPLPGSLLVSSPSARYCPKRPRHSQPVTSPSVDAAFLRSILAGDQQALSLHSESRSAQRGGAGATLNGGEPDGDEALKRDQCERWKAHVGGLFIPFFDADDEYRDDYDPGYRILDLAEAHYIHDCHTFRQNPVDLVGGLSACSRRPRLSAHLERIYSRRSAATVRGSRSVTEDRGDKSEERGPKAESELGPRGQDSPRFGAWGSGARRETAAFAGGPGTGGTGGGRSSPSFGFHGGDESRAGGPPDEAHMFEFSLDDEGDRDATAEMENKESSRESRAVSLEDELADCTVQVSSRFSGSKAPLPPVPGAARLDSKNDGASSSAKPGGESAPAEPFSPVQGDDPGASGRVEVSVGAPGDFSTLSAAEEDQLAAYEREMKLCEAWRERYCNGDPGAFRARQQAMRSACILSFEGSKDSEAQPQGGRLGPVLRPLYPKSDDAFYPVRIQPSSQRSSLREPRGTARGSEETEERLEETDDSGAESGPGGKAAAARTRPAGTGRGEDASEARPTHGEAKRGQEHSSLPRQPQQGRGTTAPAVIYDCFHLKVVFERGRTGFEDHRELVLPPGTLLAGRYEVEKEVGRAAFSRCLRCIDTVTNKQVCLKVIRNEKEYMDQSLDEVKTLRFLSANGDPDALHFLRLCDFFYHREHLVLVTELLSQNLYEFSSFFRKNHLPSFWTVGKIQRIARELLVALRFVHSLNVVHCDLKPENILLRPQAITDTRFYKCLSQQQPSAIVAEVFANCGRRNSADGRVAADAADRDASARKRNGVSASSGSDVSPFSLQLPCTQFGTSLSPQKDAPCAASLHAPVSVKLIDFGNSCLTSDPLITYVQSRSYRAPEVLLELPYDTKIDIWSLGCVLFELWTSVVLFMNDSVHSLLARIVGIIGQIPWYMVEKSPKKEELFDSDGFLYVVLPSENSEWKGDSKGKGTRSHEEEKEGRRDEGEREGKRESQGRMLRFLLPKRTSLRQRMRATDEVFIDFLEKMLIIDPAQRWDANRLLTHPFLDQHRYPDGL	binds

From publication PMC8698288
